PMC8471547
These are yes or no findings as the source states them, for the method shown. Binding seen in cells or lysates may run through a third protein. Some binding calls cover weakened binding; strength is not graded here.

Chains of the proteins cited; added tags and fusions are not shown.
UniProt Q9GKQ9: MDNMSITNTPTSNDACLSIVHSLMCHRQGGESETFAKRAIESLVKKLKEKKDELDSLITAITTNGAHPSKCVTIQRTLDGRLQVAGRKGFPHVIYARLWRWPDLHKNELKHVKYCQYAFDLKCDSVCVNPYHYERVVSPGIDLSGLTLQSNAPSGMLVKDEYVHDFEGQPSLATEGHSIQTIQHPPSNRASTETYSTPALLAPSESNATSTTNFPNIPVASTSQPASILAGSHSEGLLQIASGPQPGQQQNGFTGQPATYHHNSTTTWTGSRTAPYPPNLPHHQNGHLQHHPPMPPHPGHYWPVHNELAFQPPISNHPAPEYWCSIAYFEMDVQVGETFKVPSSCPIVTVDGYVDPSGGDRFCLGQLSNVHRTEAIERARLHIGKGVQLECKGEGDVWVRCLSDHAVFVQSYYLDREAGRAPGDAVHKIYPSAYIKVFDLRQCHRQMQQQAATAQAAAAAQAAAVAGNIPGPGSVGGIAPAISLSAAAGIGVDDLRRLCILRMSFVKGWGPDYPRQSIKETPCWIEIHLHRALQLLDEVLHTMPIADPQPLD
UniProt A0A286ZZJ6: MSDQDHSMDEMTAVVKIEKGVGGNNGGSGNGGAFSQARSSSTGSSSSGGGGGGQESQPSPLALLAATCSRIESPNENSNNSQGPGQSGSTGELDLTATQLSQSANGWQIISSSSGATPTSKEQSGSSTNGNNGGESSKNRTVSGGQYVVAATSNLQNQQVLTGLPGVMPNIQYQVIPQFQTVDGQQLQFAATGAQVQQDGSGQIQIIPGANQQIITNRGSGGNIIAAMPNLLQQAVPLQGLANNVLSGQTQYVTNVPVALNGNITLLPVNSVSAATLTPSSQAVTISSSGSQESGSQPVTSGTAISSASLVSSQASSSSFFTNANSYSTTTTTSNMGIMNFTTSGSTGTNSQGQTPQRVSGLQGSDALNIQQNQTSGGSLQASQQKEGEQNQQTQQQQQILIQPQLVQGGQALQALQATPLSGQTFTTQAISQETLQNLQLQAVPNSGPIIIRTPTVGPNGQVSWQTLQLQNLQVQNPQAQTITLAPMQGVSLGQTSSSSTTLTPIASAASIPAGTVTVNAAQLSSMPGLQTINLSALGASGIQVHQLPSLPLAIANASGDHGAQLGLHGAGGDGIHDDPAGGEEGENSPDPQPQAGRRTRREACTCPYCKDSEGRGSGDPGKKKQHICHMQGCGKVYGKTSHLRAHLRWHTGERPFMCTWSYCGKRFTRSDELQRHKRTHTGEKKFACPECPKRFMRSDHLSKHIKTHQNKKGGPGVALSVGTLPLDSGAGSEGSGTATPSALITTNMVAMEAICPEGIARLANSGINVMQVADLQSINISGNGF
UniProt P56432: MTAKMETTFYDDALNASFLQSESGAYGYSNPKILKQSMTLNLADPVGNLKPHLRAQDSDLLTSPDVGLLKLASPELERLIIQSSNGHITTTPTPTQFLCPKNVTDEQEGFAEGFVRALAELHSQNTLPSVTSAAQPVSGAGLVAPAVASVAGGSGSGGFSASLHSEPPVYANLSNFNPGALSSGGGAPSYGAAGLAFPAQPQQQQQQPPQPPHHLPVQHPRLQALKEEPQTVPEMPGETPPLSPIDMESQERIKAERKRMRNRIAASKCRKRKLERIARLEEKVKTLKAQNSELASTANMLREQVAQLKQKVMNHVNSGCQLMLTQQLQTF

Biological target: SMAD4 (pig (endogenous in porcine granulosa cells)) (UniProt Q9GKQ9)
Assay: co-IP; 200 uL protein extract of porcine GCs with 4 ug anti-SMAD4 antibody at 4 °C overnight, Protein A/G magnetic beads 4 h at room temperature; eluted proteins identified by Western blotting; IgG as negative control

binding	Substance
binds	SP1 (SP1 transcription factor) (from UniProt A0A286ZZJ6 1-786)
binds	c-JUN (from UniProt P56432 1-331)
